Binding data for two substances are collected here from US20200223921A1.

Sequences of proteins named here, by UniProt entry; tags and fusion partners are left off. A change or cut given only in a name is not applied to a line headed by its entry. A line that says so, or that is headed by a name, gives the form on record, which may keep a tag or linker. Residues count along the entry.
UniProt Q8TDQ0: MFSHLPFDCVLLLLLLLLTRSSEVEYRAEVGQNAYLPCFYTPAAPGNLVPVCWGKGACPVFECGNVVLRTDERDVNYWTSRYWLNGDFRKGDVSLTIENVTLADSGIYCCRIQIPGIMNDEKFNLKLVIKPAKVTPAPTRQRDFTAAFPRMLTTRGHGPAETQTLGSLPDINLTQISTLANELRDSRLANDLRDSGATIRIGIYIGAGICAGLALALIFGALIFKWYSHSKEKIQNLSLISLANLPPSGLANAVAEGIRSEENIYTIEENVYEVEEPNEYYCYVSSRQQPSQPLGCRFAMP
HA-tagged human TIM-3 (expressed in 293T cells): residues 22-301 of Q8TDQ0
UniProt P17931: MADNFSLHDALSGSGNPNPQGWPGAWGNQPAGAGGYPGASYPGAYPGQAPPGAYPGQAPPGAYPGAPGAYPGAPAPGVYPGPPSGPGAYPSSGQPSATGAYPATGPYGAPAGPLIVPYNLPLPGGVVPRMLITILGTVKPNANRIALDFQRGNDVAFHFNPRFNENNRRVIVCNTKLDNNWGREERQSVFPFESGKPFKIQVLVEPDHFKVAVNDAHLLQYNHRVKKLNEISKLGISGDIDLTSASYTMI

Assay [1] addresses HA-tagged human TIM-3 (expressed in 293T cells) (human) (UniProt Q8TDQ0). Description: co-immunoprecipitation, anti-HA blot (FIG. 1C).
The target is the same in assay [2]. Description: co-immunoprecipitation with anti-Flag agarose beads from co-transfected 293T cells, anti-HA blot.
The target in assay [3] is Flag-tagged human Gal3 (over-expressed in 293T cells) (human) (UniProt P17931). Description: pull-down with Fc fusion protein, anti-Flag blot (FIG. 2).
For assay [4] the target is unchanged. Description: pull-down: 293T cells expressing Flag-hGal3 on plates coated with hTIM-3 Fc, Protein G beads, anti-Flag blot.

These are yes or no findings as the source states them, for the method shown. Binding seen in cells or lysates may run through a third protein. Some results given as binding are weak or reduced against the parent protein; the word gives no strength.

As to “Flag-tagged human Gal3 (over-expressed in 293T cells) (from UniProt P17931 1-250) (ligand)”, the binding entry in assay [1] and in assay [2] was “binds” throughout.
“hTIM-3 Fc (hTIM-3 extracellular domain fused with the Fc portion of hIgG) (from UniProt Q8TDQ0 22-202) (Fc fusion)”: the binding result in assay [3] and in assay [4] was “binds” each time.
